Data published in patent US20260124314A1, “ANTl-5T4 ANTIGEN BINDING DOMAINS, ANTIBODY-DRUG CONJUGATES AND METHODS OF USE THEREOF” (Salubris Biotherapeutics, Inc., priority 2023, published 2026).
Results are given in words; binding and its absence hold for the method and conditions named. Some binding calls cover weakened binding; strength is not graded here.

What was measured:
[1] = biological target: T1, recombinant human 5T4 protein (human, UniProt Q13641 32-355); assay: SPR sandwich, (h)Ab1 injected over 5T4 held by captured (m)Ab2
T1 construct: The ELISA protein was bought (Sino biologics and Biorbyt); also called recombinant 5T4 protein; trophoblast glycoprotein (TPBG)
T1 sequence: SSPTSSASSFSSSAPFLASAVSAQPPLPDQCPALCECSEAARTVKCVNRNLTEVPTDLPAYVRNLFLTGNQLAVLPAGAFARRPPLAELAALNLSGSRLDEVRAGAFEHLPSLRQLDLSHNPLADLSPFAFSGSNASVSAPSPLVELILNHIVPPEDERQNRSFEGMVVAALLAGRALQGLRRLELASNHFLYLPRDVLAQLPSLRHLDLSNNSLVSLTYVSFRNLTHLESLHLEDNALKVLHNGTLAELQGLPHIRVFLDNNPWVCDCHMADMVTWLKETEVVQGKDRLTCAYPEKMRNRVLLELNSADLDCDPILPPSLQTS

[2] = biological target: T2, 5T4 on the cell surface (human cancer cell lines and 5T4-transfected HEK293 cells) (human) (UniProt Q13641); assay: flow cytometry on cancer cell lines and 5T4-transfected HEK293 cells
T2 sequence: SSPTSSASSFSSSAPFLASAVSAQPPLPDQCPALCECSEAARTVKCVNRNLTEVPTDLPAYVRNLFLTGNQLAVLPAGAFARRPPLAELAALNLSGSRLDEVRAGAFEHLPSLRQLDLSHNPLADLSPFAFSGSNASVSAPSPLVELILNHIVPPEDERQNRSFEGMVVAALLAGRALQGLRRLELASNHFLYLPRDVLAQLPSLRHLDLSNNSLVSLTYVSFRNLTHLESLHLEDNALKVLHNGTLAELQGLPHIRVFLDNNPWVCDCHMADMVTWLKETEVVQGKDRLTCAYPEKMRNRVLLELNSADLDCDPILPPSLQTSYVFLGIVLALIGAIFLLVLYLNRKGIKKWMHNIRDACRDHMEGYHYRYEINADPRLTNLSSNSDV

[3] = biological target: T1, recombinant human 5T4 protein; assay: SPR (Biacore 8K) sandwich: 5T4 held by captured (m)Ab2, then humanized Ab1 injected

Measured: binding

B1: humanized antibody No. 1 ((h)Ab1) (antibody, V domains shown)
VH: QVQLVQSGAEVKKPGASVKVSCKASGYSFTDYYMHWVRQAPGQGLEWMGRVSPNNGATNTNQKFKDRVTMTRDTSISTAYMELRSLRSEDTAVYYCARSTMITSYYFDYWGQGTLVTVSS
VL: DIVMTQSPSFLSVSVGDRVTITCKASQSVSTDVAWYQQKPGQAPKLLIYFASDRYTGVPDRFSGSGSGTDFTFTISSLQAEDVAVYYCQQDYSSPPTFGGGTKLEIK
notes: The FcγR assay calls it 'without Fc mutations'; also called humanized Ab1; humanized monospecific antibody Ab1
binds: all assays above
